In the supplement of paper PMC10849652:
Some of the results follow.

Sequences of proteins named here, by UniProt entry; tags and fusion partners are left off. A change or cut given only in a name is not applied to a line headed by its entry.
UniProt Q9NYB0: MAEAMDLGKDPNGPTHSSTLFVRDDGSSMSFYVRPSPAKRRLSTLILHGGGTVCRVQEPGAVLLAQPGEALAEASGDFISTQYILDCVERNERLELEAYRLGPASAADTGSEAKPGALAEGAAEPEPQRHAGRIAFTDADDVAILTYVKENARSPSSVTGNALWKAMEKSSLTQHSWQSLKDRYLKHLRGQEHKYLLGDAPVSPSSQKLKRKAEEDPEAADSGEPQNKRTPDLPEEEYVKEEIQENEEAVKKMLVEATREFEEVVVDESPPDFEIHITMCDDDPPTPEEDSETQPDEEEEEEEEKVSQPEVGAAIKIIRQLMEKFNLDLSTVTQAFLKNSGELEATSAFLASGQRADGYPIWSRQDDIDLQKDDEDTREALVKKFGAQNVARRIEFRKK
UniProt Q5VWP2: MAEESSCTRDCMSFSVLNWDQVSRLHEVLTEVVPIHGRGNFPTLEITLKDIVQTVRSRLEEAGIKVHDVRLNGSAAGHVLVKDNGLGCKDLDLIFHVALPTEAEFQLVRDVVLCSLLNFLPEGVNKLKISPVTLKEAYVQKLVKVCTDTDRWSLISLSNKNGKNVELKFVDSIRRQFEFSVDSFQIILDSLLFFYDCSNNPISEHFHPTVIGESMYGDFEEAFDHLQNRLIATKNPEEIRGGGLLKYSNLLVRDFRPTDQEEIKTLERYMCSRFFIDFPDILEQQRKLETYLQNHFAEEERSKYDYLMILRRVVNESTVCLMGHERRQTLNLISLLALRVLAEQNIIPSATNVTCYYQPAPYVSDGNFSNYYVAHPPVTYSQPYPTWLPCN
UniProt O75663: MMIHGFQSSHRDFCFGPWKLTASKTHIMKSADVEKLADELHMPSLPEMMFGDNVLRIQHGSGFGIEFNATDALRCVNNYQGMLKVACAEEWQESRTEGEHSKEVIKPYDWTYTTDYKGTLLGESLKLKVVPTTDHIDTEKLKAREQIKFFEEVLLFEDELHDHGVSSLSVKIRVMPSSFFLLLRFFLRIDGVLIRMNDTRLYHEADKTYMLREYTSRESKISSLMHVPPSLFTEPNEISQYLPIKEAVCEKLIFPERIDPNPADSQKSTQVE
UniProt Q15582: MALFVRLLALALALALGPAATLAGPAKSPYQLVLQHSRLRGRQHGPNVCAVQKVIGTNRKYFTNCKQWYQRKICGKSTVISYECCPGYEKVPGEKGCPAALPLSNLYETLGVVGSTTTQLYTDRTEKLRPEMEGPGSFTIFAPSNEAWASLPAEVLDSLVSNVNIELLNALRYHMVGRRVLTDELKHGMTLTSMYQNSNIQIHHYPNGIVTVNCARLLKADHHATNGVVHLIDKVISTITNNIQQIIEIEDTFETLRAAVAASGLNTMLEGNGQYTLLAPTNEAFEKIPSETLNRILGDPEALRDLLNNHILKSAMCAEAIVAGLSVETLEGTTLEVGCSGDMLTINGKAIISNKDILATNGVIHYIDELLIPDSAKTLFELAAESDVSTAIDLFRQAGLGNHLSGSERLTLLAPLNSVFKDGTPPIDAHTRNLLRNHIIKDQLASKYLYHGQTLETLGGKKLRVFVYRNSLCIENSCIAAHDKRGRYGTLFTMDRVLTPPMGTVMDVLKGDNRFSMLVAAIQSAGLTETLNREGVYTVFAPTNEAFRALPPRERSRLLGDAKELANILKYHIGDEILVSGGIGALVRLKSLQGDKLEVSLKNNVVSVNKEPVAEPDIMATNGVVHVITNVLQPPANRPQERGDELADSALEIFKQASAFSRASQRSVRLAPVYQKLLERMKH
UniProt Q07157: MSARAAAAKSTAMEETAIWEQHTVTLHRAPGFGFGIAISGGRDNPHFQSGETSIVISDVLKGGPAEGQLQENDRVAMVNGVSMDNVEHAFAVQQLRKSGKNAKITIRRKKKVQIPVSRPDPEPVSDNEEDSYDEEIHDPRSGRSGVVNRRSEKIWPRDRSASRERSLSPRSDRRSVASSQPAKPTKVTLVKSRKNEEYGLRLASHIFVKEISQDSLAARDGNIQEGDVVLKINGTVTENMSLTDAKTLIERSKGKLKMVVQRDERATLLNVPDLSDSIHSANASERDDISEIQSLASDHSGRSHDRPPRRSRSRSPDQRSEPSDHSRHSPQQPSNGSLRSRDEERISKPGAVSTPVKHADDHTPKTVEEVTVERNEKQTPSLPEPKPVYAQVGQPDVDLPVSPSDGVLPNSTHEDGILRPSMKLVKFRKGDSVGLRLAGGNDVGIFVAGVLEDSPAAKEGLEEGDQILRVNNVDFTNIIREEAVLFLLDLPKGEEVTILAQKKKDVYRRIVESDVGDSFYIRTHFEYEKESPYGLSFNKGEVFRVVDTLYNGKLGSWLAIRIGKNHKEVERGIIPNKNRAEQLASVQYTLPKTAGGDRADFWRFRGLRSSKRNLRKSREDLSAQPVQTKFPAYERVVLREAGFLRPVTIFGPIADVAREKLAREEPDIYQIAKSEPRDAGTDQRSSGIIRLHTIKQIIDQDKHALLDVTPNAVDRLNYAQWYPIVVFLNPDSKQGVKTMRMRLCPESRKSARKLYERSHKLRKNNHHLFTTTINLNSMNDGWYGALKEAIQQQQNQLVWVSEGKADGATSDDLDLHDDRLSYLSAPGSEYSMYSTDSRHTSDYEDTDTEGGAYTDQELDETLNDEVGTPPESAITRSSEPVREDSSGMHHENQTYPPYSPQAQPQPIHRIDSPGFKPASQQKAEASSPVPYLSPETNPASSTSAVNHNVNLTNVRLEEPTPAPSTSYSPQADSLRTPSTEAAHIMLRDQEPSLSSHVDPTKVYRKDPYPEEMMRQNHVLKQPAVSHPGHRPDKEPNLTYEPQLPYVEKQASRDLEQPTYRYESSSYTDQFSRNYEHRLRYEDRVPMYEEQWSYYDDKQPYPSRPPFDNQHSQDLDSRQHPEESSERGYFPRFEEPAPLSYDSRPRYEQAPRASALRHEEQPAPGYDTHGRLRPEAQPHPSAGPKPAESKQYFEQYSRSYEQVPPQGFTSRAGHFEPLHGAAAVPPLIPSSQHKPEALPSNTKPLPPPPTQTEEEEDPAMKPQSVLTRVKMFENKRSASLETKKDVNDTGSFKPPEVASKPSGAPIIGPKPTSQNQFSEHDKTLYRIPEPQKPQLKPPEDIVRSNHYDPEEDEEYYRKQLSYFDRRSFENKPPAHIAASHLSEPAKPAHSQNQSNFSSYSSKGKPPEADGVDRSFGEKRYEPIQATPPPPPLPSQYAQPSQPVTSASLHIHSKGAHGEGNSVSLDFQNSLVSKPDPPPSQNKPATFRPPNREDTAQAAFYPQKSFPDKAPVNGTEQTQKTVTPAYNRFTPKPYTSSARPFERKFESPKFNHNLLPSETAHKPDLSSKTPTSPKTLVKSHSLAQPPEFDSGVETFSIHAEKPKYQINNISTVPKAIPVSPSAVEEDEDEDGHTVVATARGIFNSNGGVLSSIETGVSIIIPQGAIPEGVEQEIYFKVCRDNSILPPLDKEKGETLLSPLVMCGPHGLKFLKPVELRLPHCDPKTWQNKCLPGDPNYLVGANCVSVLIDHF
UniProt P20226, whole entry, looked up: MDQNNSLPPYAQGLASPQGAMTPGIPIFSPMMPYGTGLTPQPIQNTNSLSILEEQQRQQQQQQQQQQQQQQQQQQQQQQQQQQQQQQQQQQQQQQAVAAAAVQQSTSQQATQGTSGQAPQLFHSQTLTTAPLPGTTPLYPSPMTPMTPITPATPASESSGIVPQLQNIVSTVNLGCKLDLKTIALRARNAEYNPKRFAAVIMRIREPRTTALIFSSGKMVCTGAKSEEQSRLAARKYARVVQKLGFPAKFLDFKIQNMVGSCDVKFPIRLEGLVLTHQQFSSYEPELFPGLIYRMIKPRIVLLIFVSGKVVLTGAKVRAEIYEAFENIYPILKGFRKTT
UniProt Q14186: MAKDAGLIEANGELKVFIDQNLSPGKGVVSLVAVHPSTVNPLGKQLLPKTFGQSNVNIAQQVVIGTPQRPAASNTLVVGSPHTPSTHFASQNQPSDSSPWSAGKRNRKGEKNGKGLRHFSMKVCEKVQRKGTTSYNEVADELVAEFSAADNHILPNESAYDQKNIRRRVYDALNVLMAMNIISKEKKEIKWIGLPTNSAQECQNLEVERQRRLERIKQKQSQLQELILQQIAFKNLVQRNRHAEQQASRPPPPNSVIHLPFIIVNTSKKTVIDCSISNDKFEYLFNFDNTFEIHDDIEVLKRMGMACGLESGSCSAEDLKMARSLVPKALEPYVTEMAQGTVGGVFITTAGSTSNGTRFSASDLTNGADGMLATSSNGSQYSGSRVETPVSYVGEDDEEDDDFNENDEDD
UniProt Q969Z0: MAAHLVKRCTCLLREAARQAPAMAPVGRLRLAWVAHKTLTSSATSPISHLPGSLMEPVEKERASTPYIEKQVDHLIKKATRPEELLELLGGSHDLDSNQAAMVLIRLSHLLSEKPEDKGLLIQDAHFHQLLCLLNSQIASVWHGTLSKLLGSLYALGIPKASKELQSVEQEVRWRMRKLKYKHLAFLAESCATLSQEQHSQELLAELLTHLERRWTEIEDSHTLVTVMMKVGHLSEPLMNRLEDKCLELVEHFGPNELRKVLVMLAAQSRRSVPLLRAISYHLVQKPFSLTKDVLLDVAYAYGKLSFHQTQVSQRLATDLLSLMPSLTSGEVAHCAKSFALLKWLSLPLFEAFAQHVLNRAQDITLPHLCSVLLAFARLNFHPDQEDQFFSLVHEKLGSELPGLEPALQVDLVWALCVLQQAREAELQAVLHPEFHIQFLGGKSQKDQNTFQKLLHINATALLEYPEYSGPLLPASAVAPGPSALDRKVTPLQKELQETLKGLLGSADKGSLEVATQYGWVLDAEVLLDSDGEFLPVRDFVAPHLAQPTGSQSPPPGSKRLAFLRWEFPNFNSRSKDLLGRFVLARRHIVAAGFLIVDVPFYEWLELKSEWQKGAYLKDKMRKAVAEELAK
UniProt Q9UHD2: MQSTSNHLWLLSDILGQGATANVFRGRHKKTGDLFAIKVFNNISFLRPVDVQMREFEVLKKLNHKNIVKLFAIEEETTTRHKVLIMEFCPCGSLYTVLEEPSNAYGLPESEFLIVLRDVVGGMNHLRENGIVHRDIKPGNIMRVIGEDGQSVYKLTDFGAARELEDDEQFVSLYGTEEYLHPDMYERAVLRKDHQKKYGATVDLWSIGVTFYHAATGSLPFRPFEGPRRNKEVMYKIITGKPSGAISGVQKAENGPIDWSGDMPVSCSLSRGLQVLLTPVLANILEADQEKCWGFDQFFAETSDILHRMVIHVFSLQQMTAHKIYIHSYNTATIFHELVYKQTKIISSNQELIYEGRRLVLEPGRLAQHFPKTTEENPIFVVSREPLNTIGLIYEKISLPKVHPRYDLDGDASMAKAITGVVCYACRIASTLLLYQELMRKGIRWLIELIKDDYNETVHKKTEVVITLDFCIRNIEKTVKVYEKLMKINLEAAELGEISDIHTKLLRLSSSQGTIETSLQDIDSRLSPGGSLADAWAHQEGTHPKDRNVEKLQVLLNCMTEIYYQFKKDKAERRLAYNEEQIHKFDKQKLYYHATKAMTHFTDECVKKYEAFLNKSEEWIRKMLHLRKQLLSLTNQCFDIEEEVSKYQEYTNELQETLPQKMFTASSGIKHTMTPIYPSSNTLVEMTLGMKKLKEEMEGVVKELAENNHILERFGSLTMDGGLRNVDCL
UniProt Q9ULP9: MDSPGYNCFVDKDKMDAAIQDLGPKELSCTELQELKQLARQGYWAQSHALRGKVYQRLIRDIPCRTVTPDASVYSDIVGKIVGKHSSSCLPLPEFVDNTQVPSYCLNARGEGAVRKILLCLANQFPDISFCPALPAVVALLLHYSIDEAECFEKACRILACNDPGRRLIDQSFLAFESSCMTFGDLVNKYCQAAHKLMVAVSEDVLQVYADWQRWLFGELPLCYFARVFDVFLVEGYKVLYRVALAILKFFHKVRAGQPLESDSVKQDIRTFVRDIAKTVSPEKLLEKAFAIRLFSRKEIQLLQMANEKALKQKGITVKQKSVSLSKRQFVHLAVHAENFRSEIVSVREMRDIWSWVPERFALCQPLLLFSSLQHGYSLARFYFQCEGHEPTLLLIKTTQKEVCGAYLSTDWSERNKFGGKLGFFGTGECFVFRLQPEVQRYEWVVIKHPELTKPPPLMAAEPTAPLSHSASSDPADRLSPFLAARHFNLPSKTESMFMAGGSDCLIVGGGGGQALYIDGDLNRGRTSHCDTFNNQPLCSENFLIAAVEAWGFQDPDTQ
UniProt O00142: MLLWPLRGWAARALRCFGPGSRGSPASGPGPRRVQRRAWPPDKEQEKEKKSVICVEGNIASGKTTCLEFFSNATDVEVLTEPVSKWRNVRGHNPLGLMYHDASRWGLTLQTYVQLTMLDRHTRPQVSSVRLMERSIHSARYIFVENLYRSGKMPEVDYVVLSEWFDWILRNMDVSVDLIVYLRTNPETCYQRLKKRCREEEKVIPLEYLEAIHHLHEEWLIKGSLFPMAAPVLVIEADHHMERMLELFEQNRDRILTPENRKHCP

The targets below were run with COc1cccc2cc(-c3nc([C@H]4CC[C@H](C(=O)O)CC4)n4ncnc(N)c34)[nH]c12 (assay: log2 fold change, soluble protein after heating vs DMSO (PISA); higher = thermal stabilisation; K562 cells, 10 uM, 30 min; active = over 0.2 and 3.5 SD of the protein, either way, in both replicates (recomputed)).
Procedure, shortened: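 Aliquots of K562 cells (2×10^6 cells/mL) treated with 10 μM compound for 30 min were heated for 3 min over 48°C-58°C. After pooling and extraction in PBS with 0.5% NP-40 at 4°C, soluble protein from a 21,000xg, 90 min spin was quantified by TMTpro 16plex LC-MS/MS with channel sums equalised. Thermal stability is expressed against control samples, from duplicates, as a log2 fold change.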

log2 fold change, inactive:
TERF2IP (UniProt Q9NYB0) 0.025, TBC1D23 (UniProt Q9NUY8) 0.021, TFAM (UniProt Q00059) -0.058, TGS1 (UniProt Q96RS0) -0.037, TENT5C (UniProt Q5VWP2) -0.021, TIPRL (UniProt O75663) -0.009, TBC1D5 isoform 2 (UniProt Q92609) 0.003, TDRD7 (UniProt Q8NHU6) -0.028, TBC1D20 isoform 3 (UniProt Q96BZ9) -0.032, TGFBI (UniProt Q15582) 0.15, TJP1 (UniProt Q07157) 0.055, TFPI (UniProt P10646) -0.172, TBP (UniProt P20226) 0.081, TFDP1 (UniProt Q14186) -0.035, TBRG4 (UniProt Q969Z0) 0.073, TJP2 isoform 7 (UniProt Q9UDY2) 0.012, THYN1 (UniProt Q9P016) -0.007, TBC1D2B (UniProt Q9UPU7) 0.004, TBCD (UniProt Q9BTW9) 0.023, TBK1 (UniProt Q9UHD2) 0.08, TBC1D24 (UniProt Q9ULP9) 0.05, TK2 isoform 6 (UniProt O00142) 0.101, TEX2 isoform 2 (UniProt Q8IWB9) -0.125
